{"sequences": {"note": "Amino acid sequences for entries named in this document (tags omitted). A change or cut given only in a name is not applied to a line headed by its entry.", "UniProt Q01717": "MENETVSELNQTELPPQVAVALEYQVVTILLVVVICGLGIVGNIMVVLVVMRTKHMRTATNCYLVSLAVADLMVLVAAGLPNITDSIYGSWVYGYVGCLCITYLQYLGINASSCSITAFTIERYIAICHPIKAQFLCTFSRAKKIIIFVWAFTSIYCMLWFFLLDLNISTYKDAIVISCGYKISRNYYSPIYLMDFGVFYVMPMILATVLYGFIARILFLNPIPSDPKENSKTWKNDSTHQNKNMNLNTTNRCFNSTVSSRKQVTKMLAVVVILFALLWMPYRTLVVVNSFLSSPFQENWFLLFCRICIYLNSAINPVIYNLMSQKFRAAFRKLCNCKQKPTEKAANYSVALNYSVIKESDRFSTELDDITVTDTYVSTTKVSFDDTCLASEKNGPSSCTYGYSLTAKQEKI"}, "source": "PubChem BioAssay (EPA / NIEHS)", "note": "Inconclusive means that the source gave no clear call. Such entries were picked first, then a sample of the others. Where the call is inconclusive, the potency comes from a doubtful curve fit. Active and inactive are the calls of the source. How the source made its calls: active means hit-call score of the fitted dose curve at least 0.9, where 1 is the maximum; inconclusive means response in the unintended direction; inactive means score below 0.9."}
{"biological_target": "rat Thyrotropin Releasing Hormone Receptor (TRH), Trhr (gene 25570) (UniProt Q01717)", "experiment": "NVS_GPCR_rTRH: NovaScreen (NVS) G Protein-Coupled Receptor Assay for rat Thyrotropin Releasing Hormone Receptor (TRH) (AID 2283329);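 further: hit means lower bound tracer signal versus DMSO baseline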", "method_in_brief": "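Competitive radioligand binding on rat forebrain membrane preparations, with filtration and scintillation readout after 4 h. Primary testing in duplicate at 25 uM; actives confirmed in concentration-response. DMSO defined baseline.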"}
{"smiles": "Cc1cc(Cc2cc(C)cc(C(C)(C)C)c2O)c(O)c(C(C)(C)C)c1", "AC50": "inconclusive: 6580 nM"}
{"smiles": "C(=C(c1ccccc1)c1ccccc1)c1ccccc1", "AC50": "inconclusive: 25000 nM"}
{"smiles": "CN(C)c1ccc(N=Nc2ccccc2C(=O)O)cc1", "AC50": "inconclusive: 25000 nM"}
{"smiles": "Cc1ccc(S)cc1", "AC50": "inconclusive: 25000 nM"}
{"smiles": "CN(C)C(=O)Nc1ccc(Cl)c(Cl)c1", "AC50": "inconclusive: 6260 nM"}
{"smiles": "CCCc1ccc(OC)cc1", "AC50": "inconclusive: 1200 nM"}
{"smiles": "CCCCCc1ccc(N)cc1", "outcome": "inactive"}
{"smiles": "COc1cc(O)c(C(=O)c2ccccc2)cc1S(=O)(=O)O", "AC50": "inconclusive: 109 nM"}
{"smiles": "OC1CCCC1", "AC50": "inconclusive: 5650 nM"}
{"smiles": "CCCCCCCCCCCCS", "AC50": "active: 929 nM"}
{"smiles": "CN(C)CCCN", "outcome": "inactive"}
{"smiles": "CCCCC(CC)COC(=O)/C=C/c1ccc(OC)cc1", "note": "(centres undefined)", "AC50": "inconclusive: 811 nM"}
{"smiles": "CCCCOCCOCCOCCO", "AC50": "inconclusive: 25000 nM"}
{"smiles": "O=S(=O)(O)c1ccccc1C=Cc1ccc(-c2ccc(C=Cc3ccccc3S(=O)(=O)O)cc2)cc1", "AC50": "inconclusive: 864 nM"}
{"smiles": "NCc1cccc(CN)c1", "AC50": "inconclusive: 567 nM"}
{"smiles": "CC1=NN(c2cc(S(=O)(=O)O)ccc2Cl)C(=O)C1N=Nc1ccccc1", "note": "(centres undefined)", "AC50": "inconclusive: 25000 nM"}
{"smiles": "CCC/C=C/C=O", "AC50": "inconclusive: 739 nM"}
{"smiles": "O=Cc1ccccc1O", "outcome": "inactive"}
{"smiles": "OC1CCCCCCCCCCC1", "AC50": "inconclusive: 460 nM"}
{"smiles": "NCCN", "outcome": "inactive"}
{"smiles": "OC[C@H]1O[C@@H](O[C@H]2[C@H](O)[C@@H](O)[C@H](O)O[C@@H]2CO)[C@H](O)[C@@H](O)[C@H]1O", "AC50": "inconclusive: 6570 nM"}
{"smiles": "O=C(O)CO", "AC50": "inconclusive: 148 nM"}
{"smiles": "CCO[Si](CCCN)(OCC)OCC", "AC50": "inconclusive: 2.6 nM"}
{"smiles": "O=C(OCCc1ccccc1)c1ccccc1", "AC50": "inconclusive: 25000 nM"}
{"smiles": "CCN(CC)c1ccc2c(-c3ccccc3C(=O)O)c3ccc(=[N+](CC)CC)cc-3oc2c1", "outcome": "inactive"}
{"smiles": "c1ccc2c(c1)ccc1cc3c(ccc4ccccc43)cc12", "outcome": "inactive"}
{"smiles": "Cc1ccc(N/N=c2\\c(=O)cc/c(=N/Nc3ccc(S(=O)(=O)O)cc3)c2=O)c(C)c1", "AC50": "inconclusive: 4960 nM"}
{"smiles": "NC(N)=S", "outcome": "inactive"}
{"smiles": "NC(=O)N=NC(N)=O", "outcome": "inactive"}
{"smiles": "CC(=O)OCCOC(C)=O", "AC50": "inconclusive: 78.6 nM"}
{"smiles": "O=C(O)C1=NN(c2ccc(S(=O)(=O)O)cc2)C(=O)C1", "AC50": "inconclusive: 6570 nM"}
{"smiles": "c1ccc(CCCc2ccccn2)cc1", "AC50": "inconclusive: 276 nM"}
{"smiles": "CCCCCC(=O)O[C@]1(C(C)=O)CC[C@H]2[C@@H]3CCC4=CC(=O)CC[C@]4(C)[C@H]3CC[C@@]21C", "outcome": "inactive"}
{"smiles": "O=C(O)c1ccccc1C(c1ccc(O)cc1)c1ccc(O)cc1", "AC50": "inconclusive: 1330 nM"}
{"smiles": "CCCc1ccc(O)cc1", "AC50": "inconclusive: 25000 nM"}
{"smiles": "O=C(Nc1ccc2c(O)c(N=Nc3ccc(N=Nc4ccc(S(=O)(=O)O)cc4)cc3)c(S(=O)(=O)O)cc2c1)c1ccccc1", "AC50": "inconclusive: 74.1 nM"}
{"smiles": "O=C(C=Cc1ccccc1)OCc1ccccc1", "AC50": "inconclusive: 1170 nM"}
{"smiles": "CCO[Si](C)(OCC)OCC", "outcome": "inactive"}
{"smiles": "COc1cc([N+](=O)[O-])ccc1N", "outcome": "inactive"}
